Common to all, as to experiment: log2 fold change, soluble protein after heating vs DMSO (PISA); higher = thermal stabilisation; K562 lysate, 10 uM; active = over 0.2 and 3.5 SD of the protein, either way, in both replicates (recomputed)
Compound in test [1]: NCC(=O)Nc1ccc(-n2nc(C(F)(F)F)cc2-c2ccc3c(ccc4ccccc43)c2)cc1
In a few lines: (§1)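 Log-two fold change in thermal stability relative to solvent controls is reported from duplicates. For each sample, crude K562 extract from dounce-homogenised pellets in PBS pH 7.4 with 1 mM MgCl2, at 1 mg/mL protein, was treated with 10 μM compound for 30 min. Aliquots heated for 3 min across 48°C-58°C were pooled, brought to 0.5% NP-40 at 4°C and cleared at 21,000xg for 90 min. The supernatant was quantified by TMTpro 16plex LC-MS/MS with channel sums equalised.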

The chains behind the UniProt entries cited, without tags or fusion partners. Where a name states a change or a piece, a line headed by the entry shows the natural chain unless it says otherwise.
UniProt Q9Y6H3: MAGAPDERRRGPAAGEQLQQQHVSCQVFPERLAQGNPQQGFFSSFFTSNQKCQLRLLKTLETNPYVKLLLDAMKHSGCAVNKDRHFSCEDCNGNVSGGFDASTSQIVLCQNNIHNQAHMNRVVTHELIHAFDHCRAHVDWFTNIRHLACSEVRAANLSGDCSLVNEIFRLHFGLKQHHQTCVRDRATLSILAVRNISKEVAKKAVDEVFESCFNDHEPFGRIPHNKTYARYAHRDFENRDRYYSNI
UniProt Q9H7F0: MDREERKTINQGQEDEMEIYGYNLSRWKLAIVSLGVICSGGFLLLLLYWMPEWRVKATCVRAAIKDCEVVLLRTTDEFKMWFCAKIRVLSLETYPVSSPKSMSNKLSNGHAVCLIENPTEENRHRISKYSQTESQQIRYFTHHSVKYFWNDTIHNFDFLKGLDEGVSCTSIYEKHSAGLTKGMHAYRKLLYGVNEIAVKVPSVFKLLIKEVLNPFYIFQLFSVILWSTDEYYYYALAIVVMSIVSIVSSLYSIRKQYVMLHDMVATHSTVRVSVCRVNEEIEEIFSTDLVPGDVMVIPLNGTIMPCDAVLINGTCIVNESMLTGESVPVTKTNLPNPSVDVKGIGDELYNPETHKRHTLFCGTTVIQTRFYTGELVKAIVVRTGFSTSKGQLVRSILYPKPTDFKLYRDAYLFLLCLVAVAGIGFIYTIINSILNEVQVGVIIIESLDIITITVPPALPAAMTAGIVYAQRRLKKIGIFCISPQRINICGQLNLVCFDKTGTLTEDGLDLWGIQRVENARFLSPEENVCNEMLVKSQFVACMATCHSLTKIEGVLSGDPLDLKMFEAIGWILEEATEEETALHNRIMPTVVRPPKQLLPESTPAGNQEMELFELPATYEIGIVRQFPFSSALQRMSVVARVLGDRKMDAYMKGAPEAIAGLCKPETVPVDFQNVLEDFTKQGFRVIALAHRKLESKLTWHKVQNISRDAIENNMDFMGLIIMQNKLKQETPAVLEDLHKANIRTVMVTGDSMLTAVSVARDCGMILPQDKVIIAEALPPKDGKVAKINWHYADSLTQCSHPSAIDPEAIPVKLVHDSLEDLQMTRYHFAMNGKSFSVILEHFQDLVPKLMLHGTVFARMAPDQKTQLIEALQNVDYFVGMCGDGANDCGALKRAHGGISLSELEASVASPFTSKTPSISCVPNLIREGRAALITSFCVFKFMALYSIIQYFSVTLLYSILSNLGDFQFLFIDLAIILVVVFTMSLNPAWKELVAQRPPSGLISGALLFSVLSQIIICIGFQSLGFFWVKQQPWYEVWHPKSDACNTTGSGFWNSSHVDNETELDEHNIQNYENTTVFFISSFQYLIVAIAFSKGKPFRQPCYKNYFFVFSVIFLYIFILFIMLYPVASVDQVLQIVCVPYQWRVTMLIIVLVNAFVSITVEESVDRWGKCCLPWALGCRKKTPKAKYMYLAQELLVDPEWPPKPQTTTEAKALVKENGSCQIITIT
UniProt Q8N9N2: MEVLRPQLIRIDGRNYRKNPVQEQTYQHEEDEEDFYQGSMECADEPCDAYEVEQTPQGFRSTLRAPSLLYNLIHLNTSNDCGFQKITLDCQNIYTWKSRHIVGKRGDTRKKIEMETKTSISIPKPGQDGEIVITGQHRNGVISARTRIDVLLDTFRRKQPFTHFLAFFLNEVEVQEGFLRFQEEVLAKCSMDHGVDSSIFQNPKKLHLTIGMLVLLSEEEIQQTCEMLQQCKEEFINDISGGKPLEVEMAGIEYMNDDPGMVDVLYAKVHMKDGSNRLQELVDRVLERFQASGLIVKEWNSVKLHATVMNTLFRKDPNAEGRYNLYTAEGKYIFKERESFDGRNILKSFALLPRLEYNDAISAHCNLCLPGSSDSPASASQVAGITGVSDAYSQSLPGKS
UniProt Q8NHH9: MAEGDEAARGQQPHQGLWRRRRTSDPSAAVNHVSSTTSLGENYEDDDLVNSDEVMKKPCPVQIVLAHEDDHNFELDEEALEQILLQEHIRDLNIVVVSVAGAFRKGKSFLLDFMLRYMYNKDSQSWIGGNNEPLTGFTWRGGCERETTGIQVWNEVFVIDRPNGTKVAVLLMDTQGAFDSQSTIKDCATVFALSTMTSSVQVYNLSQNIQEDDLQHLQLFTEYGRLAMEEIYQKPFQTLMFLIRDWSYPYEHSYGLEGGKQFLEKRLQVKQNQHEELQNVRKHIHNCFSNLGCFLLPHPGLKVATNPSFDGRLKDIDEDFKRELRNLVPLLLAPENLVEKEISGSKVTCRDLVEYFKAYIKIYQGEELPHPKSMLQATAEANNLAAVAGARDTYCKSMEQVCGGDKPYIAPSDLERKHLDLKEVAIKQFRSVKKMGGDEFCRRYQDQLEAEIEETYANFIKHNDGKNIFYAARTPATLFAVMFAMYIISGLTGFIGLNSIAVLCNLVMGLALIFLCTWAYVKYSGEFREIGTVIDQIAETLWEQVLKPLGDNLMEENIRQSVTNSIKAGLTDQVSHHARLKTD
UniProt P38606, whole entry, looked up: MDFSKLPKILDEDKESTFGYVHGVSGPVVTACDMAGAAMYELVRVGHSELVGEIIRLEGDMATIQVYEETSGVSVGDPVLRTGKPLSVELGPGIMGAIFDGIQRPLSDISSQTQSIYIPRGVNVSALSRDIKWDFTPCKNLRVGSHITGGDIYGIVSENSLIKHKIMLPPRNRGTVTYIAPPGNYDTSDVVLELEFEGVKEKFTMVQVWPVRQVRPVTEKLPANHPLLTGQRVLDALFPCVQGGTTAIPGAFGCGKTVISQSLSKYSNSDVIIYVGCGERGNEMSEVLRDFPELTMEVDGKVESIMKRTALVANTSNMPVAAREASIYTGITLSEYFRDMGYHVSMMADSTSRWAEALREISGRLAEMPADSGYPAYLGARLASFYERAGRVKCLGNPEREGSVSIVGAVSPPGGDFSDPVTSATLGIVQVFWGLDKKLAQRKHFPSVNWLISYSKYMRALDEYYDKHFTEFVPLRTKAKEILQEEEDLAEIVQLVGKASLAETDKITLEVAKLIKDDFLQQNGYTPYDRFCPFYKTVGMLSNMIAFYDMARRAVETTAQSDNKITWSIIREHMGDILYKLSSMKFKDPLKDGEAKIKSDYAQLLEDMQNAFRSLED
UniProt O75964: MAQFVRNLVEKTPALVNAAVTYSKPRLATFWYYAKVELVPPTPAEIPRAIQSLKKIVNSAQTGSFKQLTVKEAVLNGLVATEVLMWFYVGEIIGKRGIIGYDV
UniProt P56381: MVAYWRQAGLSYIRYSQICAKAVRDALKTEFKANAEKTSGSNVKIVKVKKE
UniProt P25705: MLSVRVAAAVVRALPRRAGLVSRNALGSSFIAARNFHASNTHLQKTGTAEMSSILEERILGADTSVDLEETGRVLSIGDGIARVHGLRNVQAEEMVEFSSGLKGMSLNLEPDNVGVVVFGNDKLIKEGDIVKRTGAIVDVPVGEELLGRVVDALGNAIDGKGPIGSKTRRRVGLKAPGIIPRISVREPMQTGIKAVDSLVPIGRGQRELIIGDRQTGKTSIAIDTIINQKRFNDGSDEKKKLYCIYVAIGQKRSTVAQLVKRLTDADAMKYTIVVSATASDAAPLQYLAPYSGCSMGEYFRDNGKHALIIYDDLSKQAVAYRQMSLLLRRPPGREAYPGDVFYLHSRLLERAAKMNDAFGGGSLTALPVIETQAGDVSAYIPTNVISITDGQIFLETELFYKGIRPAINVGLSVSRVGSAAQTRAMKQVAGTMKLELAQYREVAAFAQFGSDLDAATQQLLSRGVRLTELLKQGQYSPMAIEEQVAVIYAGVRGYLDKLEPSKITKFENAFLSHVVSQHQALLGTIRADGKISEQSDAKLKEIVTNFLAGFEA
UniProt O75947: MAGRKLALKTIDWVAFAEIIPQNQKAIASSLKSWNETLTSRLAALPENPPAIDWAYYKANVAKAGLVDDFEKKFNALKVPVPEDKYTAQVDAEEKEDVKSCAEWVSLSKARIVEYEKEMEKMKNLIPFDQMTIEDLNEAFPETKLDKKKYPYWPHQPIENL
UniProt Q93050, whole entry, looked up: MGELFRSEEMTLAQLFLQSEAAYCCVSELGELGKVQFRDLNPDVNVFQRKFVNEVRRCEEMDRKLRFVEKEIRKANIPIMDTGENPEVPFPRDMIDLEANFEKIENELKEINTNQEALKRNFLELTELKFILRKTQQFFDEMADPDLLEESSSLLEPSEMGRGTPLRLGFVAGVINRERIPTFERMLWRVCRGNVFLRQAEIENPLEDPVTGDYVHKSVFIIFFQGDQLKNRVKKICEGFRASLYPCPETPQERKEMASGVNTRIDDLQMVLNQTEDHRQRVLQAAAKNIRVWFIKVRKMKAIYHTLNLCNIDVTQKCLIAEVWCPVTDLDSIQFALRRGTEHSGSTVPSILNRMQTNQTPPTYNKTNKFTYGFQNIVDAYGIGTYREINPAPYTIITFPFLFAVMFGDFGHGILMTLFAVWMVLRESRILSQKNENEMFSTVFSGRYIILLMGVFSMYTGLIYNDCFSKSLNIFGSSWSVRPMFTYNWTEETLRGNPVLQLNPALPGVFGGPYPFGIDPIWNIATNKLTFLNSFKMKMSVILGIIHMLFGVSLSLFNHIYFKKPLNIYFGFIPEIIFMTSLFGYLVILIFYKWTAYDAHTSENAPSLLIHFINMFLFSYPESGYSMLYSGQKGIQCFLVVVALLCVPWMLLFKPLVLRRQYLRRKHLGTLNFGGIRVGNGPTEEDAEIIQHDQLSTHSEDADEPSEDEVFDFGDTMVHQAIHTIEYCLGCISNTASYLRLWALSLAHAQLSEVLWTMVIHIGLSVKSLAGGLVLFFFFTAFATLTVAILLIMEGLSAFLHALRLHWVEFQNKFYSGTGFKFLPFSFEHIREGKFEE
UniProt O75787, whole entry, looked up: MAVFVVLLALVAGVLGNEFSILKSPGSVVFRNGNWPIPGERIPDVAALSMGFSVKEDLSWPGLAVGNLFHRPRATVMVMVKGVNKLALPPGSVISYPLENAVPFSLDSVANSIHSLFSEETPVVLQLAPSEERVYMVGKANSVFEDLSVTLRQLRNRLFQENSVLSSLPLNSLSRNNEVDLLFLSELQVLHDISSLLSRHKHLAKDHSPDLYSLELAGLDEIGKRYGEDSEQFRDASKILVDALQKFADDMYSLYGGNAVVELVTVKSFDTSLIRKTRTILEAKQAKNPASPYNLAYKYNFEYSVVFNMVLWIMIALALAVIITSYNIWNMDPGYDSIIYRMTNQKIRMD
UniProt O75882: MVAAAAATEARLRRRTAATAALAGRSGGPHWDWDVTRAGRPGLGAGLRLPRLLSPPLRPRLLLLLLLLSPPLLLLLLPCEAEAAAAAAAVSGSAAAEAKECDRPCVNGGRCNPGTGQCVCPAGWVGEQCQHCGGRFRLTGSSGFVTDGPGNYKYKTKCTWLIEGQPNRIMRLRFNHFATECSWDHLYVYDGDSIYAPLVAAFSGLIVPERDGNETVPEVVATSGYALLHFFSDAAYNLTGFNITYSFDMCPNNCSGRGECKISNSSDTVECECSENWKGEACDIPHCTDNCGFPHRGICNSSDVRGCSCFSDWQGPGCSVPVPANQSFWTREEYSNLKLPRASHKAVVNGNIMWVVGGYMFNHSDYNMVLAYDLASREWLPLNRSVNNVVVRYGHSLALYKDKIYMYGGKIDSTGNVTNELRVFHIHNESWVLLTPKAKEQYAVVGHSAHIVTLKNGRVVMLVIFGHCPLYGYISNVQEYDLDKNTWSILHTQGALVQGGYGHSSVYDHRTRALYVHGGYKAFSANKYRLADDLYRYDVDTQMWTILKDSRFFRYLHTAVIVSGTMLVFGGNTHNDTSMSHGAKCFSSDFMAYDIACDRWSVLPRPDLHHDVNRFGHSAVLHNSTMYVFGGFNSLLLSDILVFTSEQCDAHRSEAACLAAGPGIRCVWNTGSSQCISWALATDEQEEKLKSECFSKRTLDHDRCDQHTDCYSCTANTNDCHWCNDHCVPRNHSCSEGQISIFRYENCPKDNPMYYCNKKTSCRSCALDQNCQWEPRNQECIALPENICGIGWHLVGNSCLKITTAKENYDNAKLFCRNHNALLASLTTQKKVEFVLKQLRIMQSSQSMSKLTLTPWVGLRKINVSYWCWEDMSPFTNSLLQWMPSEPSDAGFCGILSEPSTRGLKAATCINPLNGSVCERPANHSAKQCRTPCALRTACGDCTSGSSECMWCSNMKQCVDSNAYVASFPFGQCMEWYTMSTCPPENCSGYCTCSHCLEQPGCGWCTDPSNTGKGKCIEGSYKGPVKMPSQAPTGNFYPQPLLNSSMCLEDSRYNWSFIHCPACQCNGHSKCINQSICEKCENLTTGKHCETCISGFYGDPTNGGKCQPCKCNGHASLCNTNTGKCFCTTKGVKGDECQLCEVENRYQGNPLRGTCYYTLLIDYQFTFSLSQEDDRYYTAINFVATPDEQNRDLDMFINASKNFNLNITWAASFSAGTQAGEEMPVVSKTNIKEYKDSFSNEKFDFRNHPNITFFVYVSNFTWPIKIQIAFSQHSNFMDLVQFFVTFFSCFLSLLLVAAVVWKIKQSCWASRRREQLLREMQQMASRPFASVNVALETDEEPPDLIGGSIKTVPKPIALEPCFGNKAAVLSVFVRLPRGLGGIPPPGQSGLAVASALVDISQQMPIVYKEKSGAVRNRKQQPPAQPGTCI

Compound in a further test: O=C(CCCCCCC(=O)Nc1ccccc1)NO [vorinostat]
Summed up: as §1

Compound in a further test: O=C(O)c1ccc2c(c1)nc(Nc1cccc(Cl)c1)c1ccncc12 [silmitasertib]
Summed up:
as §1

Compound in test [2]: O=C1NC(=O)C(c2cnc3ccccn23)=C1c1cn2c3c(cc(F)cc13)CN(C(=O)N1CCCCC1)CC2
Summed up: as §1

Compound in a further test: c1cn2cc(-c3ccc4cn[nH]c4c3)nc(Nc3ccc(N4CCOCC4)cc3)c2n1 [entospletinib]
Summed up:
as §1

The other results are listed elsewhere or left out.

Regarding ATP1A1 (UniProt P05023), the log2 fold change is inactive: -0.003 in test [1]; inactive: 0.099 in the test with vorinostat; inactive: -0.032 with silmitasertib; inactive: -0.002 in test [2]; inactive: 0.01 in the test with entospletinib.
The matching figures for ATP13A2 (UniProt Q9NQ11): inactive: -0.017, inactive: 0.141, inactive: 0.005, inactive: 0.007 and inactive: -0.014.
With ATXN2L isoform 3 (UniProt Q8WWM7), the log2 fold change in test [1] was inactive: 0.013; with vorinostat it was inactive: -0.152; in the test with silmitasertib, inactive: -0.027; in test [2], inactive: -0.021; with entospletinib it was inactive: -0.003.
As to ATP23 (UniProt Q9Y6H3), the log2 fold change in test [1] was inactive: -0.154; with vorinostat, inactive: -0.008; with silmitasertib it was inactive: -0.034; in test [2] it was inactive: -0.047; with entospletinib, inactive: -0.007.
Regarding ATP13A3 (UniProt Q9H7F0), the log2 fold change in test [1] is inactive: -0.082; with vorinostat it was inactive: 0; with silmitasertib it was inactive: 0.056; in test [2], inactive: -0.004; with entospletinib it was inactive: 0.043.
The matching figures for ASCC1 isoform 2 (UniProt Q8N9N2): inactive: 0.029, inactive: -0.225, inactive: 0.052, inactive: -0.02 and inactive: -0.017.
Take ATL2 (UniProt Q8NHH9): the log2 fold change was inactive: -0.014 in test [1]; inactive: 0.008 with vorinostat; inactive: 0.003 with silmitasertib; inactive: -0.025 in test [2]; inactive: -0.03 in the test with entospletinib.
The matching figures for ATP6V1A (UniProt P38606): inactive: -0.001, inactive: 0.059, inactive: -0.002, inactive: -0.052 and inactive: 0.009.
Consider ATXN2 (UniProt Q99700), for which the log2 fold change in test [1] was inactive: 0.024; with vorinostat, active: -0.282; with silmitasertib, inactive: -0.01; in test [2] it was inactive: -0.005; with entospletinib, inactive: -0.008.
Take ATP5MG (UniProt O75964): the log2 fold change was inactive: -0.007 in test [1]; inactive: 0.107 with vorinostat; inactive: 0.016 with silmitasertib; inactive: 0.008 in test [2]; inactive: 0.029 with entospletinib.
The matching figures for ATP5F1E (UniProt P56381): inactive: -0.021, inactive: 0.007, inactive: 0.032, inactive: -0.036 and inactive: -0.035.
Consider ATP6V1B1 (UniProt P15313), for which the log2 fold change in test [1] is inactive: -0.005; with vorinostat, inactive: 0.083; with silmitasertib, inactive: -0.013; in test [2] it was inactive: -0.006; with entospletinib, inactive: 0.014.
The matching figures for ATP5F1A (UniProt P25705): inactive: -0.007, inactive: 0.118, inactive: 0.008, inactive: -0.024 and inactive: -0.012.
The matching figures for ATXN2 (UniProt F8WB05): inactive: 0.013, inactive: 0.011, inactive: 0.271, inactive: 0.115 and inactive: -0.016.
The matching figures for ATP5PD (UniProt O75947): inactive: -0.01, inactive: 0.107, inactive: -0.013, inactive: 0.044 and inactive: -0.012.
ATP6V0A1 isoform 3 (UniProt Q93050): the log2 fold change was inactive: 0.001 in test [1]; inactive: 0.12 with vorinostat; inactive: -0.014 with silmitasertib; inactive: 0.041 in test [2]; inactive: -0.026 in the test with entospletinib.
The matching figures for ATXN3 isoform 1 (UniProt P54252): inactive: 0.008, inactive: 0.05, inactive: -0.03, inactive: -0.024 and inactive: -0.041.
For the target ATAD3A (UniProt Q9NVI7), the log2 fold change in test [1] was inactive: -0.054; with vorinostat, inactive: 0.086; with silmitasertib, inactive: -0.038; in test [2], inactive: 0.001; with entospletinib it was inactive: 0.
Consider ATP7B (UniProt P35670), for which the log2 fold change was inactive: 0.023 in test [1]; inactive: -0.132 with vorinostat; inactive: 0.026 with silmitasertib; inactive: 0.086 in test [2]; inactive: 0.026 with entospletinib.
Turning to ATP6AP2 (UniProt O75787), the log2 fold change was inactive: -0.017 in test [1]; inactive: 0.106 with vorinostat; inactive: 0.004 with silmitasertib; inactive: 0.005 in test [2]; inactive: -0.044 in the test with entospletinib.
As to ATP1B3 (UniProt P54709), the log2 fold change is inactive: -0.003 in test [1]; inactive: 0.136 with vorinostat; inactive: -0.028 with silmitasertib; inactive: -0.004 in test [2]; inactive: -0.023 with entospletinib.
Consider ATR (UniProt Q13535), for which the log2 fold change is inactive: 0.044 in test [1]; inactive: -0.131 with vorinostat; active: 0.509 in the test with silmitasertib; inactive: -0.01 in test [2]; inactive: 0.046 in the test with entospletinib.
For the target ATRN (UniProt O75882), the log2 fold change was inactive: -0.129 in test [1]; inactive: 0.268 in the test with vorinostat; inactive: 0.028 in the test with silmitasertib; inactive: -0.053 in test [2]; inactive: -0.068 with entospletinib.
The matching figures for ATP6AP1 (UniProt Q15904): inactive: -0.032, inactive: 0.11, inactive: -0.04, inactive: -0.023 and inactive: 0.005.
